According to US20070249526A1 (priority 2003, published 2007):
“And” between values parts separate entries of the source, which are not always exact repeats. Equal values may be shown once.

Test: general procedure: solution-phase peptide synthesis; BOP/DIPEA (fragment coupling and cyclisation); Example 19: HBTU/DIPEA, PyBOP/HOB
Settings: for isolated yield: scale of the general procedure 100 g linear hexapeptide per cyclisation batch
[1] = late stage modification step, TFA salt, acetate salt

Ac-Phe-Orn(Boc)-Pro-D-Cha-Trp-Arg-OH
crude purity (method not given) (coupling step, 1H nmr, ISMS and rpHPLC, TFA salt, acetate salt): >94%
step yield (coupling step, TFA salt, acetate salt, run 1): 80%
step yield (coupling step, TFA salt, acetate salt, run 2): 72%
crude purity (method not given) (coupling step, analytical rpHPLC (214 nm), 1H nmr, ISMS, TFA salt, acetate salt): >94%
step yield [1]: 96%

Ac-Phe-Orn-Pro-Cha-Trp-Arg-OH
crude purity (method not given) (late stage modification step, 1H nmr, ISMS and rpHPLC, TFA salt, acetate salt): greater than 93%
step yield [1]: 95%
crude purity (method not given) (late stage modification step, analytical rpHPLC (214 nm), 1H nmr, ISMS, TFA salt, acetate salt): >95%

AcPheOrn(Boc)Pro(d)ChaTrp(For)ArgOEt
step yield (coupling step, TFA salt, acetate salt): 90%

Ac-Phe[Orn-Pro-D-Cha-Trp-Arg]
cyclisation yield (cyclisation step, 2TFA, side-chain lactam ring): about 74%
crude HPLC purity (cyclisation step, 214 nm, TFA salt, acetate salt, side-chain lactam ring): greater than 90%
cyclisation yield (cyclisation step, TFA salt, acetate salt, side-chain lactam ring, run 1): 49% and 51% and 33%
final purity (method not given) (cyclisation step, analytical rpHPLC (214 nm), 1H nmr, ISMS, TFA salt, acetate salt, side-chain lactam ring): >97%
isolated mass (whole synthesis, TFA salt, acetate salt, side-chain lactam ring): 64 g
isolated yield (whole synthesis, overall from commercially available amino acids, TFA salt, acetate salt, side-chain lactam ring): 12.5%
isolated yield (whole synthesis, overall, 2HOAc, side-chain lactam ring): 25%
